In ChEMBL document CHEMBL1782008, “Paraminabeolides A-F, cytotoxic and anti-inflammatory marine withanolides from the soft coral Paraminabea acronocephala” (J Nat Prod, 2011):

Key:
MDA-MB-231 = experiment: Cytotoxicity against human MDA-MB-231 cells by MTT assay; type: functional, cell-based
A549 = experiment: Cytotoxicity against human A549 cells by MTT assay; type: functional, cell-based

`COc1cccc2c1C(=O)c1c(O)c3c(c(O)c1C2=O)C[C@@](O)(C(=O)CO)C[C@@H]3O[C@H]1C[C@H](N)[C@H](O)[C@H](C)O1` [DOXORUBICIN] was tested, and the IC50 (MDA-MB-231) was 2.2 µM and the IC50 (A549) was 2.2 µM.
